This is an account of results in article PMC6514072.

By UniProt entry, the sequences of proteins in these tests, tags left out.
UniProt P16671: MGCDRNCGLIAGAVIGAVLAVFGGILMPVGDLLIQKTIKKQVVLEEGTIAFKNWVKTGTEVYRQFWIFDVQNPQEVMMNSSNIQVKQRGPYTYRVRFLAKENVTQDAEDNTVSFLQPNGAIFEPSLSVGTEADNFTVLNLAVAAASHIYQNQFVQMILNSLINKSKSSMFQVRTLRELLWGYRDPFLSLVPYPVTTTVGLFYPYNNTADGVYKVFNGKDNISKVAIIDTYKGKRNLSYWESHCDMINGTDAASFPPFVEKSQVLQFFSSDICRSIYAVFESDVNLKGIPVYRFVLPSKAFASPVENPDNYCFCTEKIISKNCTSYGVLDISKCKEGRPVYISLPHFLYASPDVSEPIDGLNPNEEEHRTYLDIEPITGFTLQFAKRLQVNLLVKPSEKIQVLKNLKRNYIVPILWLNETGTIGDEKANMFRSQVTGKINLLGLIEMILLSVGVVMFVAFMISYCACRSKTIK

Results are given in words; binding and its absence hold for the method and conditions named. In cells and extracts the contact can be indirect. Some results given as binding are weak or reduced against the parent protein; the word gives no strength.

Assay [1] addresses Platelet glycoprotein 4 (CD36), endogenous in macrophages (human (endogenous in THP-1)) (UniProt P16671). Nature of the assay: co-IP; crude membrane preparations of macrophages differentiated from THP-1 cells, solubilized in TEM buffer with 1% CHAPS; rabbit polyclonal anti-NEU1 or mouse monoclonal anti-CD36 on protein G Sepharose, 2 h at 4 °C; cells with or without kE; Western blot.

Assay [2] concerns the target NEU1 sialidase (endogenous, plasma membrane of macrophages) (human (endogenous in THP-1)) (UniProt Q99519). The assay is described as above.
Assay [3] has as its target Platelet glycoprotein 4 (CD36), endogenous in macrophages (human (endogenous in THP-1)) (UniProt P16671). Nature of the assay: co-IP; CD36 immunoprecipitated with a mouse monoclonal anti-CD36 antibody from whole lysate of macrophages; Western blot with rabbit polyclonal anti-NEU3.

On to “NEU1 sialidase (endogenous, plasma membrane of macrophages) (from UniProt Q99519 48-415) (enzyme)”, for which, in assay [1], the binding entry is on record as “binds”.
Turning to “Platelet glycoprotein 4 (CD36), endogenous in macrophages (from UniProt P16671 1-472) (receptor)”, in assay [2], the binding entry was “binds”.

B1: NEU3 (endogenous in macrophages) (enzyme, UniProt Q9UQ49 1-428)
chain: MEEVTTCSFNSPLFRQEDDRGITYRIPALLYIPPTHTFLAFAEKRSTRRDEDALHLVLRRGLRIGQLVQWGPLKPLMEATLPGHRTMNPCPVWEQKSGCVFLFFICVRGHVTERQQIVSGRNAARLCFIYSQDAGCSWSEVRDLTEEVIGSELKHWATFAVGPGHGIQLQSGRLVIPAYTYYIPSWFFCFQLPCKTRPHSLMIYSDDLGVTWHHGRLIRPMVTVECEVAEVTGRAGHPVLYCSARTPNRCRAEALSTDHGEGFQRLALSRQLCEPPHGCQGSVVSFRPLEIPHRCQDSSSKDAPTIQQSSPGSSLRLEEEAGTPSESWLLYSHPTSRKQRVDLGIYLNQTPLEAACWSRPWILHCGPCGYSDLAALEEEGLFGCLFECGTKQECEQIAFRLFTHREILSHLQGDCTSPGRNPSQFKSN
Take B1: in assay [3], the binding entry is “no binding”.
